Values from PubChem BioAssay AID602196 (INSERM, 2012)
The whole screen tested about 23,000 reagents; below is a random part of them. Of all reagents, 455 (2%) were called active. 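Active includes both protection and sensitisation; some change values fall well beyond the stated -50 to +50 range.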 Not all columns of the deposit are shown. Reagent sequences are not shown. Not given: the amount of reagent.

Screen: 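Genes whose knock-down alters cisplatin killing of lung cancer cells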
Cells: human A549 lung cancer cells
Knock-down reagent: siRNA pair against human genes
Time to read-out: 48 h transfection before cisplatin; time from cisplatin to read-out not stated
Treatment: cisplatin at a dose killing half of control-siRNA cells; exact dose and duration not given
Detection: 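Cisplatin cell death as a shift from the 50% death seen with control siRNA; siRNAs toxic or growth-blocking alone scored 0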
Reading the numbers: two-siRNA summed score (-2 to +2): higher = both siRNAs protect from cisplatin killing; -2 means both sensitise; mean protection from cisplatin (shift in death): higher = protection from cisplatin killing
Rule for the call: 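Each siRNA scores 0 if harmful alone by LDH or WST-1, otherwise +1 if it reduces and -1 if it increases cisplatin killing; a gene is active when both siRNAs agree (sum +2 or -2)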
Meaning of the calls: active = both siRNAs shift cisplatin killing the same way; inactive = no consistent shift, or siRNA harmful alone

{"gene": "LOC387805", "two-siRNA summed score (-2 to +2)": 0, "mean protection from cisplatin (shift in death) (%)": 5.8, "outcome": "inactive"}
{"gene": "RFX4", "two-siRNA summed score (-2 to +2)": 1, "mean protection from cisplatin (shift in death) (%)": 12.8, "outcome": "inactive"}
{"gene": "PHC1", "two-siRNA summed score (-2 to +2)": -1, "mean protection from cisplatin (shift in death) (%)": 5.3, "outcome": "inactive"}
{"gene": "KLHL20", "two-siRNA summed score (-2 to +2)": 0, "mean protection from cisplatin (shift in death) (%)": 0.2, "outcome": "inactive"}
{"gene": "LOC286526", "two-siRNA summed score (-2 to +2)": 1, "mean protection from cisplatin (shift in death) (%)": -0.3, "outcome": "inactive"}
{"gene": "LCP2", "two-siRNA summed score (-2 to +2)": 1, "mean protection from cisplatin (shift in death) (%)": 5.4, "outcome": "inactive"}
{"gene": "LOC285550", "two-siRNA summed score (-2 to +2)": 0, "mean protection from cisplatin (shift in death) (%)": 1.2, "outcome": "inactive"}
{"gene": "GDF15", "two-siRNA summed score (-2 to +2)": 0, "mean protection from cisplatin (shift in death) (%)": 3.5, "outcome": "inactive"}

Continued (2 carried over from the part before).
{"gene": "LOC285550", "two-siRNA summed score (-2 to +2)": 0, "mean protection from cisplatin (shift in death) (%)": 1.2, "outcome": "inactive"}
{"gene": "GDF15", "two-siRNA summed score (-2 to +2)": 0, "mean protection from cisplatin (shift in death) (%)": 3.5, "outcome": "inactive"}
{"gene": "SMYD1", "two-siRNA summed score (-2 to +2)": -1, "mean protection from cisplatin (shift in death) (%)": -9, "outcome": "inactive"}
{"gene": "LOC442070", "two-siRNA summed score (-2 to +2)": 0, "mean protection from cisplatin (shift in death) (%)": 17.6, "outcome": "inactive"}
{"gene": "RPE", "two-siRNA summed score (-2 to +2)": 1, "mean protection from cisplatin (shift in death) (%)": 8.9, "outcome": "inactive"}
{"gene": "IL7", "two-siRNA summed score (-2 to +2)": 0, "mean protection from cisplatin (shift in death) (%)": -6.6, "outcome": "inactive"}
